The values that follow come from doi:10.1101/2020.02.01.930172.

Protein sequences, listed by entry. Tags and fused reporters are not part of them.
UniProt Q8N6T7: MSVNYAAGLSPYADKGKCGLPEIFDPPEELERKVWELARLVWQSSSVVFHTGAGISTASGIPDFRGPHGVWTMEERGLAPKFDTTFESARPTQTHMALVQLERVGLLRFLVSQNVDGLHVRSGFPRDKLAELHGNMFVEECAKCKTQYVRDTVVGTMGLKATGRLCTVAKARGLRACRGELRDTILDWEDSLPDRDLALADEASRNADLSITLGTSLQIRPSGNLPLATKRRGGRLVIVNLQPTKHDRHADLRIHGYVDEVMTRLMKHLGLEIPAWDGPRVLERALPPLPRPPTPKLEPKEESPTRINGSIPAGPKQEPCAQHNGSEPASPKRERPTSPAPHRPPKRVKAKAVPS

These are yes or no findings as the source states them, for the method shown. In cells and extracts the contact can be indirect. Some binding calls cover weakened binding; strength is not graded here.

For this assay, the target named is SIRT6 wild type, overexpressed in HEK293 cells as FLAG-SIRT6 or HA-SIRT6 (human) (UniProt Q8N6T7). The experiment in a line: co-IP.

Turning to “SIRT6 wild type, overexpressed in HEK293 cells as FLAG-SIRT6 or HA-SIRT6 (from UniProt Q8N6T7 1-355)”, the binding entry was “binds”.
